We go through two compounds from patent publication US12091402B2 (Avilar Therapeutics, Inc., priority 2021, dated 2024).

Sequences of proteins named here, by UniProt entry; tags and fusion partners are left off.
UniProt P07306, whole entry: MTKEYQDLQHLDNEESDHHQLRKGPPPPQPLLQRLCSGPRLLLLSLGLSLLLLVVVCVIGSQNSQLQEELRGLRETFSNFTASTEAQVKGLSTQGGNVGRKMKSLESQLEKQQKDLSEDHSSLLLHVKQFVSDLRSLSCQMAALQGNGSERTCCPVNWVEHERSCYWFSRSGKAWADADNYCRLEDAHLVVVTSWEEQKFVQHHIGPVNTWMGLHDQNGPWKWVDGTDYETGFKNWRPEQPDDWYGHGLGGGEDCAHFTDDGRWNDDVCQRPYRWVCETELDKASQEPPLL
UniProt P07307, whole entry partner: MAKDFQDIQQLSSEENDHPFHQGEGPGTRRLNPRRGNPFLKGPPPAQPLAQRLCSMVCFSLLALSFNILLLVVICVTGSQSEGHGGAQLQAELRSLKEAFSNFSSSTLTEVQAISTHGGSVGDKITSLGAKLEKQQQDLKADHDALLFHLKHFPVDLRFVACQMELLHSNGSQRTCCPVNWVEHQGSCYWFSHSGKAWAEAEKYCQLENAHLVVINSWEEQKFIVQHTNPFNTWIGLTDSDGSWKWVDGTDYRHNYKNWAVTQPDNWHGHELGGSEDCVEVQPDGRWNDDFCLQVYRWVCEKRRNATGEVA

Read-outs that look alike come from different tables or passages of the source. The structures given here were assigned with low confidence; some may be wrong.

The target in one experiment is IgG. The experiment can be described thus: Affinity to IgG by surface plasmon resonance (SPR). Particulars: read-out: IgG SPR Binding Kd; Biacore 8K, 25° C., IgG on CM5 chip. How it is done:
Immobilization levels ranging from 1000-1300 resonance units (RU) are obtained. The running buffer is 10 mM HEPES, pH 7.4, 400 mM NaCl, 0.005% P20, […]. The initial concentration of compounds varies from 500 nM to 100 nM depending on Kd values.
(SPR reads the build-up and loss of mass on a sensor chip optically.)

Experiment [1] addresses ASGPR receptor on the cell surface (HepG2 cells) (Homo sapiens, UniProt P07306). The experiment can be described thus: Ternary complex formation assay (flow cytometry, HepG2). Format: cell-based. Particulars: read-out: Ternary Complex EC50. (In flow cytometry, cells or beads pass a laser one at a time.)
The test system of the next experiment is HepG2 cells. The experiment can be described thus: Cellular uptake assay of AF488-labeled antibody (HepG2). In kind it is cell-based. The following applies: read-out: Uptake Assay EC50, 100 nM AF488-labeled antibody, 37° C. for 6 hours, class symbols.
Another experiment has as its target ASGPR (Homo sapiens, UniProt P07306). Kind of experiment: Affinity to ASGPR by surface plasmon resonance (SPR).

One may read the Kd as the equilibrium constant for the complex coming apart. As usually defined, the EC50 is the concentration that produces a half-maximal response. On to `CC(C)C[C@@H]1NC(=O)[C@H](Cc2cnc[nH]2)NC(=O)[C@H](Cc2c[nH]c3ccccc23)NC(=O)[C@H](C)NC(=O)[C@@H](NC(=O)[C@H](CC(=O)O)NC(=O)CCOCCOCCOCCOCCNC(=O)CCCc2cn(CCCCCC(=O)NC(COCCC(=O)NCCOCCOCCOCCOC[C@@]34CO[C@@H](O3)[C@H](Nc3nc(Cl)ns3)[C@@H](O)[C@H]4O)COCCC(=O)NCCOCCOCCOCCOC[C@@]34CO[C@@H](O3)[C@H](Nc3nc(Cl)ns3)[C@@H](O)[C@H]4O)nn2)CSSC[C@@H](C(=O)N[C@H](C(N)=O)[C@@H](C)O)NC(=O)[C@H](Cc2c[nH]c3ccccc23)NC(=O)[C@H](C(C)C)NC(=O)[C@H](CC(C)C)NC(=O)[C@H](CCC(=O)O)NC(=O)CNC1=O`, for which the Kd at IgG and at ASGPR (read-out: ASGPR SPR Binding Kd) was less than 100 nM throughout. Also, the EC50 (in experiment [1]; in the experiment with HepG2 cells) was less than 100 nM in each case.
Consider `C=CCO[C@H]1O[C@H](CO)[C@H](O)[C@H](O)[C@H]1Nc1cncc(C(F)(F)F)n1`, for which the Kd at ASGPR (read-out: ASGPR SPR Binding: KD, Biacore 8K, 25° C., class symbols) is less than 1000 nM.
